± gives the standard deviation of the averaged measurements. The list shows a part of the results.
Compound: Nc1nc2c(ncn2[C@@H]2O[C@H](COP(=O)(O)OP(=O)(O)OP(=O)(O)O)[C@@H](O)[C@H]2O)c(=O)[nH]1 [guanosine triphosphate]
Assay: NP40-soluble protein abundance relative to vehicle (solubility fold change) (ratio); higher = more soluble protein in presence of GTP
In short: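 In three independent experiments, Jurkat crude lysate made by Dounce homogenisation was treated for 10 min at room temperature and then 3 min at 37 °C with eight concentrations ranging from 0.1 to 10 mM. It was then solubilised with 0.8% NP40 plus benzonase for 60 min at 4 °C and ultracentrifuged. The supernatant was TMT-labelled for LC-MS/MS, and each value is the fold change against the detergent-processed vehicle for the same replicate, using vsn-normalised intensities.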

The chains behind the UniProt entries cited, without tags or fusion partners. Where a name states a change or a piece, a line headed by the entry shows the natural chain unless it says otherwise.
UniProt Q9BYW2: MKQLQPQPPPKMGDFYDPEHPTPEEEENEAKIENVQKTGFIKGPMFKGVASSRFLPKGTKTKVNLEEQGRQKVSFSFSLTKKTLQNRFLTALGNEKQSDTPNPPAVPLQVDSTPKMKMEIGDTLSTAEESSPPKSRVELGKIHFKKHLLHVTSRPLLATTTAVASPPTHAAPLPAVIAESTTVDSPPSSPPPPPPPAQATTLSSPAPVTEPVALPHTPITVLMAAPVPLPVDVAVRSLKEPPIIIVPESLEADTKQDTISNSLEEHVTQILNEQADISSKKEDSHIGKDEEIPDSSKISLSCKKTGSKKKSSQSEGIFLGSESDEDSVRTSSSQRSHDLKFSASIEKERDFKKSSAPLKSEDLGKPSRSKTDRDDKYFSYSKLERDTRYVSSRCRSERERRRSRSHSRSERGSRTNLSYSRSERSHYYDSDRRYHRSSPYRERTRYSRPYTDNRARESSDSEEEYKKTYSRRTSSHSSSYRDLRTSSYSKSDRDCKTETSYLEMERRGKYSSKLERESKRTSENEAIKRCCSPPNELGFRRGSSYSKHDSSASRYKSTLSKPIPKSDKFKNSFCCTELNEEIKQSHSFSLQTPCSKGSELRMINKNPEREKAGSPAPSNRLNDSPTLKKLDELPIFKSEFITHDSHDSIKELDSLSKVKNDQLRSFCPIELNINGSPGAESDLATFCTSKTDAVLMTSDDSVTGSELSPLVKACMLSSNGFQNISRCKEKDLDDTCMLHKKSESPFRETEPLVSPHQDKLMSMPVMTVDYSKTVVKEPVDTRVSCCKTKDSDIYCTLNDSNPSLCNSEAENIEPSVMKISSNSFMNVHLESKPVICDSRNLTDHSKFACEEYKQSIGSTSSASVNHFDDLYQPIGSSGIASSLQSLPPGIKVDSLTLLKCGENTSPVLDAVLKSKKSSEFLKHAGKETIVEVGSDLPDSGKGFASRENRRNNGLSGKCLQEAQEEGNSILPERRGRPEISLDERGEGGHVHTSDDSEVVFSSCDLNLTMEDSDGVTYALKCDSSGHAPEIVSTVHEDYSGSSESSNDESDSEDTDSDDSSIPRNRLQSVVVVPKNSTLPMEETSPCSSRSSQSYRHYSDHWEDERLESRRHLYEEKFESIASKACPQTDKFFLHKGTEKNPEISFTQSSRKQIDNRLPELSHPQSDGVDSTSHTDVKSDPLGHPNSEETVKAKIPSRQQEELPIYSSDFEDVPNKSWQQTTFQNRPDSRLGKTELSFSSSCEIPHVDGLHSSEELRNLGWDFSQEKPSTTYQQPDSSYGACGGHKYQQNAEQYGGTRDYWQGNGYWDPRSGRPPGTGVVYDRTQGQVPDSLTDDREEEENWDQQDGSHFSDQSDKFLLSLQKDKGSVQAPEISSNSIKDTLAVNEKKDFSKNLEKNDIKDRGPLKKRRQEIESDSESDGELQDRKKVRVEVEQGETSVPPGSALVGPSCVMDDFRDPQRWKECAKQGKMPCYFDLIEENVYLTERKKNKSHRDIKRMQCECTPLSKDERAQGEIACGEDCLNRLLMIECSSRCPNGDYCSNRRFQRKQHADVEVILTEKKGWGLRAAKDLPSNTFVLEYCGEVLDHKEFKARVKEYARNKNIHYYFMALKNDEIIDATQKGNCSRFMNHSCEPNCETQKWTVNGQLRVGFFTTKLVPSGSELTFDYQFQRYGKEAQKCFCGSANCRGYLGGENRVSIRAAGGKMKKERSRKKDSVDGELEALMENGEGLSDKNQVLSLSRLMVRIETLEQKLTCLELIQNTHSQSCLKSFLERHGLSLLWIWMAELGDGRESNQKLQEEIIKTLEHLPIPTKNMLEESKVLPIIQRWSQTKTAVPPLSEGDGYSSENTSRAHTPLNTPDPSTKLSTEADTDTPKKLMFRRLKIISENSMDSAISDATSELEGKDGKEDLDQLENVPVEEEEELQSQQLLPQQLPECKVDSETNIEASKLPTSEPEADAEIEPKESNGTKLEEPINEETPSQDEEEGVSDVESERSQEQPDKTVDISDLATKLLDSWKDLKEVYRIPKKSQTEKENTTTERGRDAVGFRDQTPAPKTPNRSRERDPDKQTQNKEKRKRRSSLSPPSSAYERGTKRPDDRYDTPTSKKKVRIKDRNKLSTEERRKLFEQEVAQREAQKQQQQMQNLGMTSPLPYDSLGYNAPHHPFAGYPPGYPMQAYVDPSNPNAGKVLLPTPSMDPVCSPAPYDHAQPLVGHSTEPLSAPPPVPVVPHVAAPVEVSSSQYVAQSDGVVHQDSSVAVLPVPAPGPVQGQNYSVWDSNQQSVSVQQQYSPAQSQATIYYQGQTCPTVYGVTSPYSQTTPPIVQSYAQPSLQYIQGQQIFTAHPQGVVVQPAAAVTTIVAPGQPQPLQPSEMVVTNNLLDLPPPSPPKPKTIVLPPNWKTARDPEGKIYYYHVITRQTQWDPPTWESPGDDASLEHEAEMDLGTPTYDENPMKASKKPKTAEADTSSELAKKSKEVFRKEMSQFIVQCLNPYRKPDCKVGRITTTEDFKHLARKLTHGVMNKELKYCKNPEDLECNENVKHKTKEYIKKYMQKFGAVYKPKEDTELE
UniProt Q96T21: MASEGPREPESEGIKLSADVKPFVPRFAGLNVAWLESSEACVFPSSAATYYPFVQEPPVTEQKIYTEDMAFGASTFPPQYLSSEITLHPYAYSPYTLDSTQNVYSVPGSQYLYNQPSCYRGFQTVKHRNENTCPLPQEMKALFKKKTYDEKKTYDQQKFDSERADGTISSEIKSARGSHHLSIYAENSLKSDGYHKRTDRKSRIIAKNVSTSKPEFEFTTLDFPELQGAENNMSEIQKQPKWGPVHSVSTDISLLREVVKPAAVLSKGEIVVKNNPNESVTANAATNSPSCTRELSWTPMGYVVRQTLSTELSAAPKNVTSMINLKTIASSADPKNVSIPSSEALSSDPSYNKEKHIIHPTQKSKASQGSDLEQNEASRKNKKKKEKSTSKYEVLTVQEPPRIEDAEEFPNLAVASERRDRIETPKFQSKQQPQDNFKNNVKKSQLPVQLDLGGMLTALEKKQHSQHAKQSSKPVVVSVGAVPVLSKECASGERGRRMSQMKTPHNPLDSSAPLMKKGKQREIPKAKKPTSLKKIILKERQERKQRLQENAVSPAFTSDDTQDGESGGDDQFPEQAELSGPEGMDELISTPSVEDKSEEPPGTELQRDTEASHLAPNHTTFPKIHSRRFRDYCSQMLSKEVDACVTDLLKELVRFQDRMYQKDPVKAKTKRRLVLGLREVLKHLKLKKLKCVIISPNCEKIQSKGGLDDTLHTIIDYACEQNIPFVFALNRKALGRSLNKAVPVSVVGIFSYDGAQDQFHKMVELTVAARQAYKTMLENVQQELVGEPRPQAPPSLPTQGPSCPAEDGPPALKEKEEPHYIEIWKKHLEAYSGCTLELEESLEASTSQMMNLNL
UniProt Q9BTL3: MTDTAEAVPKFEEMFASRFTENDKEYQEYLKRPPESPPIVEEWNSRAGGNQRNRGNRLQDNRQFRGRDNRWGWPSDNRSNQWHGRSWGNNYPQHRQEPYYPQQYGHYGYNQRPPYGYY
UniProt Q9BV20: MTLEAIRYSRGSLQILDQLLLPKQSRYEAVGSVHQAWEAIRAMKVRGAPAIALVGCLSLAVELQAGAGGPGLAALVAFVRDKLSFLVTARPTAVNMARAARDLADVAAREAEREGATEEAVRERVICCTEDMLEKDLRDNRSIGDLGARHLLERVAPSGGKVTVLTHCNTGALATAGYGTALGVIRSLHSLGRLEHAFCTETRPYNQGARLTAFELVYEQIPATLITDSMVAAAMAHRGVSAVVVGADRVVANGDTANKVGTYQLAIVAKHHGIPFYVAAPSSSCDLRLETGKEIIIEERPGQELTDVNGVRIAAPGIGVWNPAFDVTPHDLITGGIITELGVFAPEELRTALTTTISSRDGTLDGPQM
UniProt Q9BUE6: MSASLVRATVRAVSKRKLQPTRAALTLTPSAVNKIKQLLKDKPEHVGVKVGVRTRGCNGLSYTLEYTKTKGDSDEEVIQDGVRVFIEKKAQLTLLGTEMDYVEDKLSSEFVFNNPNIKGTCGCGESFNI
UniProt Q9BX70: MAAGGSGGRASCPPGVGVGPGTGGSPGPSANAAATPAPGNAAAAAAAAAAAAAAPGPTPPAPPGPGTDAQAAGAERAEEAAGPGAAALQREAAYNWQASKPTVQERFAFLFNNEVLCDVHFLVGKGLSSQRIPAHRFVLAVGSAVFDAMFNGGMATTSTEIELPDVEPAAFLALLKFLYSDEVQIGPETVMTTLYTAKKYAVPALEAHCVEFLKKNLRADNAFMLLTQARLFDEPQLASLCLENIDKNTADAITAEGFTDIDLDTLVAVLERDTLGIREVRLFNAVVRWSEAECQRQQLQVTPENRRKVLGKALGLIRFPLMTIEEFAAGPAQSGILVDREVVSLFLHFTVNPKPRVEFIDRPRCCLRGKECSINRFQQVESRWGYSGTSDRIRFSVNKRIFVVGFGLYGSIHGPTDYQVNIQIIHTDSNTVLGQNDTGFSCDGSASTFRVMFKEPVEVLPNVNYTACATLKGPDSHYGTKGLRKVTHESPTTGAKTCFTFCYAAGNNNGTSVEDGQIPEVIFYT

| Target | NP40-soluble protein abundance (concentration: 0.1mM) | NP40-soluble protein abundance (concentration: 0.5mM) | NP40-soluble protein abundance (concentration: 1mM) | NP40-soluble protein abundance (concentration: 2mM) | NP40-soluble protein abundance (concentration: 4mM) | NP40-soluble protein abundance (concentration: 6mM) | NP40-soluble protein abundance (concentration: 8mM) | NP40-soluble protein abundance (concentration: 10mM) |
| --- | --- | --- | --- | --- | --- | --- | --- | --- |
| SETD2 (UniProt Q9BYW2) | 0.996 ± 0.025 | 0.994 ± 0.028 | 1.04 ± 0.013 | 1.01 ± 0.053 | 1.02 ± 0.026 | 1.04 ± 0.025 | 1.08 ± 0.041 | 1.06 ± 0.031 |
| UniProt Q96T21 and related entries | 1.14 ± 0.15 | 1.08 ± 0.089 | 0.979 ± 0.034 | 1.14 ± 0.086 | 1.01 ± 0.089 | 1.02 ± 0.058 | 1.15 ± 0.14 | 1.11 ± 0.2 |
| UniProt Q9BTL3 | 1.03 ± 0.06 | 1.06 ± 0.036 | 1.06 ± 0.17 | 1.05 ± 0.11 | 0.96 ± 0.11 | 1.08 ± 0.015 | 1.18 ± 0.11 | 1.21 ± 0.091 |
| MRI1 (UniProt Q9BV20) | 1.08 ± 0.096 | 1.07 ± 0.09 | 1.09 ± 0.14 | 1.02 ± 0.1 | 0.976 ± 0.12 | 1.06 ± 0.14 | 1.04 ± 0.12 | 1.01 ± 0.066 |
| UniProt Q9BUE6 and related entries | 0.951 ± 0.078 | 0.999 ± 0.051 | 0.97 ± 0.059 | 1.01 ± 0.025 | 0.949 ± 0.059 | 0.974 ± 0.046 | 0.917 ± 0.056 | 0.983 ± 0.027 |
| BTBD2 (UniProt Q9BX70) | 1.09 ± 0.085 | 1.05 ± 0.062 | 1.01 ± 0.011 | 1.11 ± 0.063 | 1.09 ± 0.044 | 1.03 ± 0.084 | 1.07 ± 0.15 | 1.01 ± 0.026 |

Source: the supplement of paper PMC6411743
